Several values for one entry are separate records, joined by “and”; a condition that tells them apart may be missing. Equal values may be shown once. Inconclusive results, whose numbers are uncertain, are shown with a selection of clear calls. Potencies beside an inconclusive call are fits to weak or partial responses and may not hold up. Activity calls are given as the source filed them. Calls follow the shape of the dose curve; as a rule, active = well fitted inhibition curve with a large enough effect; inconclusive = small, poorly fitted or top-dose-only effect; inactive = flat fitted curve, though single readings scatter.
assay: qHTS Assay for Compounds Blocking the Interaction Between CBF-beta and RUNX1 for the Treatment of Acute Myeloid Leukemia: ME-1 cellular proliferation; settings: ME-1 cell proliferation, ATP luminescence, 48 h; series mostly up to 25.6 µM
Source text: NIH Chemical Genomics Center [NCGC]
NIH Molecular Libraries Probe Production centers Network [MLPCN]
Assay Submitter (PI): Paul Liu
Core Binding Factor (CBF) abnormalities are associated with 20-25% of all acute myeloid leukemias (AML), of which 5-10% are further sub classified as acute myelomonocytic leukemia with eosinophilia, also known as M4Eo in the FAB classification scheme. This subtype of leukemia is usually associated with chromosome 16 inversion (p13:q22). Chromosome 16 inversion results in formation of the fusion oncogene CBFB-MYH11, which encodes the fusion protein CBF-beta-SMMHC.
It has been hypothesized that the interference of CBF-beta and RUNX1 binding could have therapeutic implications for patients with CBF mediated leukemias. We developed a CBF-beta and RUNX1 binding assay in AlphaScreenTM format and optimized it for high throughput screening to search for inhibitors. The goal of this project is to screen MLPCN's compound collection (MLSMR) for identifying the inhibitors of the interaction between CBF-beta and RUNX1 proteins as research probes. If these probes work well in the animal models, the ultimate goal of this project is to development a new drug treatment for this disease.
The present assay assesses compounds ability to slow cellular proliferation in a CBFb dependent cell line, ME-1.
2uL/well media was dispensed per well into 1536-well white solid-bottom plates using Multidrop Combi dispenser. Subsequently, 23 nL/well compound solutions or DMSO controls were dispensed to the assay plates via a pintool workstation. The cells were grown in T225 flasks to 70% confluence under a standard cell culture condition (ATCC), detached with 0.25% Trypsin/EDTA, and seeded at 250 cells/well in 5uL medium (Dulbecco's Modified Eagle Medium, 10% fetal bovine serum, 1x penicillin/streptomycin).

SMILES | Potency
CC1(C)N([O-])C2=C(CCCC2)[N+]1=O | inactive
O=C1c2ccccc2C(=O)c2c(Nc3ccc(CCO)cc3)ccc(O)c21 | inconclusive: 15.8 µM [inhibitor, full curve]
CCOC(=O)/C(C#N)=C/c1ccc(OC(=O)c2ccccn2)cc1 | inactive
COc1cccc2c1NC(C(=O)O)C1CC=CC21 (stereo not given) | inconclusive: 35.5 µM [inhibitor, partial curve, poor fit]
O=C(NC(=S)NNC(=O)c1ccccc1O)c1ccco1 | inconclusive: 14.1 µM [inhibitor, partial curve]
CC(=O)Oc1cc(-c2coc3cc(OC(C)=O)c(OC(C)=O)c(OC(C)=O)c3c2=O)cc(OC(C)=O)c1OC(C)=O | inactive
COc1cc(C2c3cc4c(cc3C(OC3OC5COC(C)O[C@@H]5C(O)C3O)C3COC(=O)C23)OCO4)cc(OC)c1O (stereo not given in full) | active: 0.794 µM
Oc1csc(Cc2nc(-c3ccccc3F)cs2)n1 | inactive
O=C(NN1C(=O)CSC1=S)C(=O)NN1C(=O)CSC1=S | inactive
COc1cc(/C=N/NC(=O)c2cncc(Br)c2)cc([N+](=O)[O-])c1O | active: 35.5 µM
O=C(O)C1=CC(=C(c2ccc(O)c(C(=O)O)c2)c2ccc(O)c(C(=O)O)c2)C=CC1=O | inactive
COc1ccc(Oc2nc(-c3ccccn3)ncc2OC)cc1 | inconclusive: 31.6 µM [inhibitor, partial curve]
N#CC(C#N)=Cc1ccc(OC(=O)c2ccccn2)cc1 | inconclusive: 5.01 µM [inhibitor, partial curve, poor fit]
CO/N=C1\CN(c2nc3c(cc2F)c(=O)c(C(=O)O)cn3C2CC2)CC1CN (stereo not given) | inconclusive: 1.58 µM [inhibitor, partial curve]
CCCC(=O)NC(c1cccs1)c1cc([N+](=O)[O-])c2cccnc2c1O (stereo not given) | inconclusive: 35.5 µM [inhibitor, partial curve, poor fit]
O=C(O)c1cc(O)c2c(c1)[C@H]([C@H]1c3cc(C(=O)O)cc(O)c3C(=O)c3c(O[C@@H]4OC(CO)C(O)C(O)C4O)cccc31)c1cccc(O[C@@H]3OC(CO)C(O)C(O)C3O)c1C2=O (stereo not given in full) | inactive
Nc1ccc2nc3c(=O)[nH]c(=S)[nH]c3nc2c1 | inconclusive: 31.6 µM [inhibitor, partial curve, poor fit]
O=C1c2ccccc2C(=O)N1/N=C/c1ccc(O)c(O)c1O | inconclusive: 10 µM [inhibitor, partial curve, poor fit]
c1ccc(CSc2ccc(-c3ccccn3)nn2)nc1 | inconclusive: 28.2 µM [inhibitor, partial curve, poor fit]
CC(=O)Oc1cc2cccc(OC(C)=O)c(=O)c2c(OC(C)=O)c1OC(C)=O | inconclusive: 28.2 µM [inhibitor, partial curve, poor fit]

SMILES | Potency
O=C(O)C[C@@H]1C(=O)O[C@@H]2C(COC(=O)c3cc(O)c(O)c(O)c3)O[C@@H](OC(=O)c3cc(O)c(O)c(O)c3)[C@@H](OC(=O)c3cc(O)c(O)c4c3[C@H]1[C@H](O)C(=O)O4)[C@H]2OC(=O)c1cc(O)c(O)c(O)c1 (stereo not given in full) | inconclusive: 31.6 µM [inhibitor, partial curve, poor fit]
Brc1ccc(Cn2c(-c3ccc(Br)o3)nc3ccccc32)o1 | inconclusive: 12.2 µM [inhibitor, single point]
O=[N+]([O-])c1ccc(O)c(/C=N/NC2=NS(=O)(=O)c3ccccc32)c1 | inconclusive: 7.94 µM [inhibitor, full curve]
Cc1cc(O)c(C=O)c2c1C(=O)Oc1c(COC(=O)/C=C/C(=O)O)c(O)c(C(=O)O)c(C)c1O2 | inactive
O=C(O[C@@H]1OC2COC(=O)c3cc(O)c(O)c(O)c3-c3c(cc(O)c(O)c3O)C(=O)O[C@@H]([C@H]1O)[C@@H]2O)c1cc(O)c(O)c(O)c1 | inconclusive: 28.2 µM [inhibitor, partial curve, poor fit]
Cc1ccccc1NC(=S)N(CCN(C)C)C(C)c1ccccn1 (stereo not given) | inactive
Nc1ccn([C@@H]2O[C@H](CO)[C@@H](O)[C@@H]2O)c(=O)n1 | active: 0.282 µM
N#Cc1ccc(C(c2ccc(C#N)cc2)n2cncn2)cc1 | inactive
Cc1cccc(NC(=S)N(CCN(C)C)C(C)c2ccccn2)c1 (stereo not given) | inactive
COc1cc(O)c2c(c1)oc(=O)c1c3cc(O)c(O)cc3oc21 | active: 31.6 µM
CCNC1=C(Cl)C(=O)c2ccccc2C1=O | inconclusive: 28.2 µM [inhibitor, partial curve, poor fit]
O=[N+]([O-])c1cc2c(cc1/C=N/n1c(-c3ccccn3)n[nH]c1=S)OCO2 | inconclusive: 35.5 µM [inhibitor, partial curve, poor fit]
Nc1nc(-c2ccc3c(c2)NC(=O)CO3)cs1 | inactive
Oc1ccc(/C=N/NC(=S)Nc2cccnc2)c(O)c1O | inconclusive: 31.6 µM [inhibitor, partial curve, poor fit]
CCc1cccc(NC(=O)CCCCCC2NC(=O)NC2C)c1 (stereo not given) | inactive
S=C(NCc1ccco1)N1CCOCC1 | inactive
NC(Cc1ccc(O)c(O)c1)C(=O)O (stereo not given) | inconclusive: 28.2 µM [inhibitor, partial curve, poor fit]
O=C1OCC2OC(O)C(O)C(O)C2OC(=O)c2cc(O)c(O)c(O)c2-c2c(O)c(O)c3oc(=O)c4c(c(O)c(O)c5oc(=O)c2c3c54)-c2c1cc(O)c(O)c2O (stereo not given) | inconclusive: 35.5 µM [inhibitor, partial curve, poor fit]
c1ccc(-c2n[nH]c(-c3ccccn3)n2)nc1 | inconclusive: 35.5 µM [inhibitor, partial curve, poor fit] and inconclusive: 28.2 µM [inhibitor, partial curve, poor fit]
O=C1CSC(=S)N1/N=C/c1ccc(O)c(O)c1O | inconclusive: 7.08 µM [inhibitor, full curve, poor fit]

Taken from the entries so far, 2 compounds:
SMILES | Potency
N#Cc1ccc(C(c2ccc(C#N)cc2)n2cncn2)cc1 | inactive
Cc1cccc(NC(=S)N(CCN(C)C)C(C)c2ccccn2)c1 (stereo not given) | inactive

— PubChem BioAssay AID504370 (National Center for Advancing Translational Sciences (NCATS), 2011)
